The list is a part of this screen's results and no random one: it gathers tests that were run many times, whatever their T/C, doses with no T/C, and many T/C values between a quarter and a half above the control. Further doses and runs are listed elsewhere. T/C is the treated group as % of the vehicle group. Some doses have a count of surviving animals in place of a T/C: the source holds a T/C of zero for them, seemingly a mark for toxic or unscored doses. Some doses without a T/C left all or most animals alive at the check, yet need not have been tolerated: survival well below the control is almost never listed, so the zero probably covers shortened survival too. Counts of survivors are from the toxicity check (mostly the fifth day) where no day follows; animals may have died later. Schedule codes are those of the source, taken here to give the interval after Q, in days (D) or hours (H), and the number of doses after X. Some entries were tested several times; their values stand side by side, smallest first. Some schedules carry Z or #; the key to these is not given. Where survival is the endpoint, the PubChem record calls one and a half times the control and up active, and a quarter to a half above the control has no call in these data; cut-offs in other NCI protocols can differ.
Tested on: CD2F1 mice, L1210 leukemia ip, survival T/C
Experiment: NCI In Vivo Anticancer Drug Screen. Data for tumor model L1210 Leukemia (intraperitoneal) in CD2F1 (CDF1) mice
Details: higher T/C = longer survival
Method in brief: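 Vehicle-treated tumor-bearing mice served as controls (C) for compound-treated mice (T). Reported figure is T divided by C.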

[1] = T/C endpoint: mean survival time, dose: 300.0 mg/kg/injection, schedule: Q01DX001 (ip), vehicle: other
[2] = T/C endpoint: mean survival time, dose: 200.0 mg/kg/injection, schedule: Q04DX002 (ip), vehicle: saline with Tween-80
[3] = T/C endpoint: mean survival time, dose: 400.0 mg/kg/injection, schedule: Q04DX002 (ip), vehicle: saline with Tween-80
[4] = T/C endpoint: mean survival time, dose: 400.0 mg/kg/injection, schedule: Q04DX003 (ip), vehicle: saline with Tween-80
[5] = T/C endpoint: mean survival time, dose: 100.0 mg/kg/injection, schedule: Q04DX002 (ip), vehicle: saline with Tween-80

CC(C)(C[NH-])C[NH-].[Cl][Pt+2]([Cl])([Cl])[Cl]
T/C (T/C endpoint: median survival time, dose: 0.4 mg/kg/injection, schedule: Q04DX003 (ip), vehicle: water): 125 % of control | T/C (T/C endpoint: median survival time, dose: 0.8 mg/kg/injection, schedule: Q04DX003 (ip), vehicle: water): 138, 147, 148 % of control | survivor count (T/C endpoint: median survival time, dose: 6.25 mg/kg/injection, schedule: Q04DX003 (ip), vehicle: distilled water + Tween-80): 6 of 6 | survivor count (T/C endpoint: median survival time, dose: 6.4 mg/kg/injection, schedule: Q04DX003 (ip), vehicle: water): 5 of 6 and 6 of 6 | survivor count (T/C endpoint: median survival time, dose: 12.5 mg/kg/injection, schedule: Q04DX003 (ip), vehicle: distilled water + Tween-80): 5 of 6 | survivor count (T/C endpoint: median survival time, dose: 25.0 mg/kg/injection, schedule: Q04DX003 (ip), vehicle: distilled water + Tween-80): 3 of 6 | survivor count (T/C endpoint: median survival time, dose: 50.0 mg/kg/injection, schedule: Q04DX003 (ip), vehicle: distilled water + Tween-80): 0 of 6 | survivor count (T/C endpoint: median survival time, dose: 100.0 mg/kg/injection, schedule: Q04DX003 (ip), vehicle: distilled water + Tween-80): 0 of 6 | survivor count (T/C endpoint: median survival time, dose: 200.0 mg/kg/injection, schedule: Q04DX003 (ip), vehicle: distilled water + Tween-80): 0 of 6

Nc1nc2ncc(CNc3ccc(C(=O)NC(CCC(=O)O)C(=O)O)cn3)nc2c(=O)[nH]1 (centres undefined)
survivor count (T/C endpoint: mean survival time, dose: 150.0 mg/kg/injection, schedule: Q01DX001 (ip), vehicle: other): 2 of 6 | survivor count [1]: 0 of 6

CN(C)c1ccc(/C=C/c2ccnc3ccccc23)cc1
survivor count (T/C endpoint: mean survival time, dose: 100.0 mg/kg/injection, schedule: Q01DX Z (ip), vehicle: saline): 6 of 6

COc1ccc(/C=N/NC(=S)Nc2ccccn2)cc1OC
survivor count [2]: 0 of 3 | survivor count [3]: 0 of 3

Cc1ccc(C2=C(O)C(=O)C(c3ccc(C)cc3)=C(O)C2=O)cc1
survivor count [1]: 0 of 6

Cc1c([N+](=O)[O-])cc(Cl)n[n+]1[O-]
survivor count (T/C endpoint: mean survival time, dose: 12.5 mg/kg/injection, schedule: Q04DX002 (ip), vehicle: saline with Tween-80): 3 of 3 | survivor count (T/C endpoint: mean survival time, dose: 25.0 mg/kg/injection, schedule: Q04DX002 (ip), vehicle: saline with Tween-80): 1 of 3 | survivor count (T/C endpoint: mean survival time, dose: 50.0 mg/kg/injection, schedule: Q04DX002 (ip), vehicle: saline with Tween-80): 0 of 3

CCOC(=O)c1ccc(NC(=O)Nc2cccc(NC(C)=O)c2)cc1
survivor count [3]: 1 of 3 and 2 of 6

CCc1c(C)c(C)cc(S(=O)(=O)O)c1C
survivor count [4]: 0 of 6

CCC1CN2C(=N1)c1ccccc1-c1cc(Cl)ccc12 (centres undefined)
T/C (T/C endpoint: mean survival time, dose: 40.0 mg/kg/injection, schedule: Q04DX003 (ip), vehicle: Klucel (hydroxypropylcellulose) (HPC)): 134 % of control

CCOC(=O)c1ccc(NC(=O)Nc2ccc(Cl)cc2Cl)cc1
survivor count (T/C endpoint: mean survival time, dose: 50.0 mg/kg/injection, schedule: Q01DX001 (ip), vehicle: saline with Tween-80): 6 of 6 | survivor count (T/C endpoint: mean survival time, dose: 50.0 mg/kg/injection, schedule: Q01DX009 (ip), vehicle: saline with Tween-80): 3 of 3 | survivor count (T/C endpoint: mean survival time, dose: 100.0 mg/kg/injection, schedule: Q01DX001 (ip), vehicle: saline with Tween-80): 6 of 6 | T/C [5]: 88 and 89 % of control | survivor count [5]: 3 of 3 and 6 of 6 | survivor count (T/C endpoint: mean survival time, dose: 100.0 mg/kg/injection, schedule: Q04DX003 (ip), vehicle: saline with Tween-80): 6 of 6 | survivor count [2]: 6 of 6 | survivor count [3]: 2 of 3

COc1ccc(C(CC(=O)c2ccccc2)CC(=O)c2ccccc2)cc1
survivor count (T/C endpoint: mean survival time, dose: 100.0 mg/kg/injection, schedule: Q01DX009 (ip), vehicle: saline with Tween-80): 6 of 6

CCOC(=O)c1ccc(NC(=O)Nc2ccc(N(C)C(C)=O)cc2)cc1
survivor count (T/C endpoint: mean survival time, dose: 200.0 mg/kg/injection, schedule: Q04DX003 (ip), vehicle: saline with Tween-80): 6 of 6 | survivor count [4]: 6 of 6

CCc1c(CNc2ccc(C(=O)NC(CC(=O)O)C(=O)O)cc2)ccc2nc(N)nc(N)c12 (centres undefined)
T/C (T/C endpoint: mean survival time, dose: 2.0 mg/kg/injection, schedule: Q01DX001 (ip), vehicle: saline): 127 % of control | T/C (T/C endpoint: mean survival time, dose: 8.0 mg/kg/injection, schedule: Q01DX001 (ip), vehicle: saline): 135 % of control

From PubChem BioAssay AID256 (DTP/NCI, 2004)
